Data as given in PubChem BioAssay AID1259254 (NCATS, 2017)
Aim: 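Genome-wide screen for genes that prevent DNA re-replication in cancer cells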 (primary screen). Cell system: human HCT116 colorectal cancer cells. Knock-down reagent: single siRNA against human genes. Time to read-out: 3 days. Measurement: 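Imaged Hoechst DNA stain sorts each cell into a cycle phase by DNA amount; per plate, G2 fraction set to 0% for non-targeting and 100% for GMNN siRNA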. Reading the numbers: G2 robust z-score and G2 cells, % of GMNN control: higher = more G2 cells, more excess DNA replication. Rule for the call: 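An siRNA counts as active if its G2 robust z-score lies at least 5 MADs above the screen median; here such calls match roughly 38% of GMNN control or more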.
In all, the deposit lists about 59,000 reagents; this is a part drawn at random. Over the whole deposit, about 1,550 (2.6%) were called active. 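G2 share is only a proxy for re-replication; each gene was hit by three separate siRNAs, and active genes were retested.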 Entries without a mark were called inactive. The numbers tell different reagents against one gene apart. Further read-outs or replicates are left out here. Reagent sequences are not shown. Not given: the amount of reagent.

no.	gene symbol	reagent	G2 robust z-score	G2 cells, % of GMNN control
1	SLCO5A1	1	0.0511	3.33
2	SLCO5A1	2	0.736	8.14
3	SLCO5A1	3	-0.532	-0.778
4	LMBR1L	1	0.165	4.13
5	LMBR1L	2	6.11 (active)	45.9
6	LMBR1L	3	-1.59	-8.22
7	PAPSS2	1	-0.411	0.0733
8	PAPSS2	2	-1.03	-4.26
9	PAPSS2	3	-0.198	1.57
10	ZNF654	1	0.741	8.18
11	ZNF654	2	1.77	15.4
12	ZNF654	3	4.86	37.2
13	HTR3C	1	0.212	4.46
14	HTR3C	2	0.124	3.84
15	HTR3C	3	-0.488	-0.463
16	DMRTC2	1	-0.0181	2.84
17	DMRTC2	2	0.521	6.64
18	DMRTC2	3	1.51	13.6
19	SLC25A27	1	-0.196	1.59
20	SLC25A27	2	-0.822	-2.82
21	SLC25A27	3	-0.498	-0.534
22	TTYH2	1	0.224	4.54
23	TTYH2	2	0.0935	3.63
24	TTYH2	3	0.783	8.48
25	CEP63	1	2.03	17.2
26	CEP63	2	1.01	10.1
27	CEP63	3	-1.2	-5.47
28	MYRIP	1	-0.857	-3.06
29	MYRIP	2	4.4	34
30	MYRIP	3	1.22	11.6

Individual results from above:
Under “G2 cells, % of GMNN control”, PAPSS2 #2 has -4.26
Entry for PAPSS2 #3 under “G2 robust z-score”: -0.198
